# Laboratory results: publication PMC7819943, “Rice protein-binding microarrays: a tool to detect cis-acting elements near promoter regions in rice”
# Sequences of proteins named here, by UniProt entry; tags and fusion partners are left off.
# UniProt Q0JBA9, entry or part of it: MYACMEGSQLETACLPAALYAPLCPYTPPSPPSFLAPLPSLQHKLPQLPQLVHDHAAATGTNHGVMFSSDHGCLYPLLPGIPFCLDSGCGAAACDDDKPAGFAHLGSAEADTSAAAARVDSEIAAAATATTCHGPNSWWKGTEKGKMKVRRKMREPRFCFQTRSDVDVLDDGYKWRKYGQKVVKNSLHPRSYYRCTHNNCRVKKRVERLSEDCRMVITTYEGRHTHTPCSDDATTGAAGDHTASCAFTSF
# Some of the results follow.
# Biological target: OsWRKY34 (Oryza sativa, UniProt Q0JBA9 1-250)
# Assay: protein-binding microarray (RPBM); PBS, 2% BSA, 51.3 ng/ul salmon testes DNA, 50 uM zinc acetate, 200 nM TF, 25 C, 1 h; high values mean tight binding
# Settings: protein: recombinant; tags: N-terminal polyhistidine and DsRed monomer fusion (pET32a); label: CyDye5-dUTP incorporated in the synthesized complementary strand; 3' TTTTT single-stranded linker to array surface; dsDNA, one strand shown
# Summary of the method: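 For the binding signal, per-feature fluorescence intensity was read in arbitrary units on an Axon 4000B scanner. Before scanning, a 2% BSA-blocked custom Agilent array made double-stranded with Cy5-dUTP was washed after 1 h at 25 °C with 200 nM protein and 50 µM zinc acetate. The proteins were Ni–NTA-purified transcription factors with N-terminal polyhistidine and DsRed fusions, expressed in E. coli BL21-CodonPlus.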
row,Sequence,binding signal
1,GGGGTGGTGGGTGGCAAGGGGCTGCGCCGCCATCCCATCACGGAGTCACCTAGTGCAG,9800 fluorescence intensity (a.u.)
2,CATGTCTGTCAGATTCAGAAGTGGATTGCTGCGCACCGGCCGGAGTCACCTAGTGCAG,9140 fluorescence intensity (a.u.)
3,AACCATGTATACCTTTCTTCATCAGCTACCGGAACAATTGCGGAGTCACCTAGTGCAG,8192 fluorescence intensity (a.u.)
4,GCTTCTGCTTCTTCTTGTTCTTGTTGCTGTTGGTAATACTCGGAGTCACCTAGTGCAG,11000 fluorescence intensity (a.u.)
5,CTCACGGACCTTTTCCTGGGACCTTTTTTGCACTTTTCTTCGGAGTCACCTAGTGCAG,11700 fluorescence intensity (a.u.)
6,TGACTAACCTGCCTGATTGTCACAGGTCCCACTAGCTCTTCGGAGTCACCTAGTGCAG,10300 fluorescence intensity (a.u.)
7,CTCCTTGTCGTTTATCGTGTAAACCATCCATGCATCTCCACGGAGTCACCTAGTGCAG,9340 fluorescence intensity (a.u.)
8,GGTGGTGTTCTTTTCTTCTGTAAATAAGTGATTAATTAAGCGGAGTCACCTAGTGCAG,8720 fluorescence intensity (a.u.)
9,GCTACAACTCTTATCATATCTTCGCCTATATATATCGCTCCGGAGTCACCTAGTGCAG,9490 fluorescence intensity (a.u.)
10,GATCTCTCTTTATTTTCAGTGTAGCTGAATTTGACATTTTCGGAGTCACCTAGTGCAG,8050 fluorescence intensity (a.u.)
11,ACCAACTGTTTCACCATGCACCTACACTGTTGTTCTTTTACGGAGTCACCTAGTGCAG,9720 fluorescence intensity (a.u.)
12,GTAGAGAAGAGAGATGATGTATTTATTAATGGCCCACTTTCGGAGTCACCTAGTGCAG,8910 fluorescence intensity (a.u.)
13,TGTATAATGTTTGGTTGTGTATATCCATCTATGAACGGATCGGAGTCACCTAGTGCAG,8400 fluorescence intensity (a.u.)
14,GGATATTTCGCCATAATTATAGCCAATCCGTTTCTCTTTCCGGAGTCACCTAGTGCAG,10300 fluorescence intensity (a.u.)
15,TATAAAGTTACGGTTCCATCAAGGTCATATATGCTTGACTCGGAGTCACCTAGTGCAG,9520 fluorescence intensity (a.u.)
16,GAGATACTTGACTATTTTCTGTGTACTCCCTTCGTTTCATCGGAGTCACCTAGTGCAG,9680 fluorescence intensity (a.u.)
17,TGCTTCTGCCTCATCCCTTCTTGTCGTCCACGCCGCCATCCGGAGTCACCTAGTGCAG,12500 fluorescence intensity (a.u.)
18,AACCACGCTGATCCCAAACCCCATTCCGCCTCTCTCGGCCCGGAGTCACCTAGTGCAG,8530 fluorescence intensity (a.u.)
19,CTTCCCTGCTCTGCTCATCTCCTCTGCTCCAGTTCAGAAACGGAGTCACCTAGTGCAG,10300 fluorescence intensity (a.u.)
20,CCCACCACCGACCGCCGCAGAGAAAAAGCCCATGTCGTCACGGAGTCACCTAGTGCAG,8420 fluorescence intensity (a.u.)
21,GTCCAGGCTTAATTCAATCATTATATGTACATATCTTTGTCGGAGTCACCTAGTGCAG,8140 fluorescence intensity (a.u.)

row,Sequence,binding signal
1,ATCTAGGATACCGTTGACTTTTCGTACTAACATTTGACGTCGGAGTCACCTAGTGCAG,32800 fluorescence intensity (a.u.)
2,CTTCTTCGCCAGATCCCTTGGTCTTCTCGTAGATCTCTGACGGAGTCACCTAGTGCAG,10700 fluorescence intensity (a.u.)
3,CAGCTCGGATTCGTCCCACACCGATGAAATTACCGCCCATCGGAGTCACCTAGTGCAG,9040 fluorescence intensity (a.u.)
4,CAGCAGTACACATCATGTACTACTTACCGATTTCATCAGCCGGAGTCACCTAGTGCAG,8510 fluorescence intensity (a.u.)
5,GTGGGTCCCACGCTGAGTCAGCTGCCACGTCGGACAAAACCGGAGTCACCTAGTGCAG,8160 fluorescence intensity (a.u.)
6,TAGTCCACCACTCACTCCAGCAGTCCACCTTAGCAAGCAACGGAGTCACCTAGTGCAG,8030 fluorescence intensity (a.u.)
7,TCCTTAGCTTCCTTCTGTCGACTTGTCTATTCTTTTTTTCCGGAGTCACCTAGTGCAG,17700 fluorescence intensity (a.u.)
8,ATCTAGAGCGGTTGTTAGCGCAGTGGTAGTGTGTTATCTTCGGAGTCACCTAGTGCAG,8430 fluorescence intensity (a.u.)
9,CTTTGCTTATCCCTTTTTAGTGGAGATTGTTGAGTATATCCGGAGTCACCTAGTGCAG,8930 fluorescence intensity (a.u.)
10,TACTCCCTCCGTTTCAAATGACACCATTGACTTTTTAGCACGGAGTCACCTAGTGCAG,9430 fluorescence intensity (a.u.)
11,CAATCGCTCTCATTAACTGGCACGCATAACGGTTGCTTCACGGAGTCACCTAGTGCAG,8360 fluorescence intensity (a.u.)
12,CCAGACCACCACCACCACCACCACCCCACCCAGCTGGTGCCGGAGTCACCTAGTGCAG,8030 fluorescence intensity (a.u.)
13,GTACAGACCATATGTCCCGCGACCTCGAGTCCTCCTTTCCCGGAGTCACCTAGTGCAG,8980 fluorescence intensity (a.u.)
14,TGTGCTTCCCTCACTGCGCCACCACTCCACCACCTCCACCCGGAGTCACCTAGTGCAG,9410 fluorescence intensity (a.u.)
15,AATACCTATAAATACTTATCACGTCCGTCCCTAAATATAACGGAGTCACCTAGTGCAG,8300 fluorescence intensity (a.u.)
16,TATATTTTCCTTAGCTCAATAGTAGGATTTTTTTTTTCTGCGGAGTCACCTAGTGCAG,9520 fluorescence intensity (a.u.)
17,TGAGCCTTGCTCGTCGGCGGCGAGGTGGGGTGGGGCGGGGCGGAGTCACCTAGTGCAG,20800 fluorescence intensity (a.u.)
18,GTACTGTTTTAGCTTTATTCATGTTTAACGTTTCACCGTTCGGAGTCACCTAGTGCAG,9650 fluorescence intensity (a.u.)
19,TTTCTTGTAGTTGGCTCTTATTTTGGGGTTGGTCTTGCCTCGGAGTCACCTAGTGCAG,13900 fluorescence intensity (a.u.)
20,CTCTACGGCCTGTTTGTTTCCATTTAAAATTTATTGTAATCGGAGTCACCTAGTGCAG,9780 fluorescence intensity (a.u.)
21,ATTTTCATTTTCTTTTGATGTTTAGGTATTGCTACTATCGCGGAGTCACCTAGTGCAG,9700 fluorescence intensity (a.u.)

# Copied from the list.
# CTTCTTCGCCAGATCCCTTGGTCTTCTCGTAGATCTCTGACGGAGTCACCTAGTGCAG | binding signal: 10700 fluorescence intensity (a.u.)
# CAGCAGTACACATCATGTACTACTTACCGATTTCATCAGCCGGAGTCACCTAGTGCAG | binding signal: 8510 fluorescence intensity (a.u.)
# CAATCGCTCTCATTAACTGGCACGCATAACGGTTGCTTCACGGAGTCACCTAGTGCAG | binding signal: 8360 fluorescence intensity (a.u.)
# TAGTCCACCACTCACTCCAGCAGTCCACCTTAGCAAGCAACGGAGTCACCTAGTGCAG | binding signal: 8030 fluorescence intensity (a.u.)
# TATATTTTCCTTAGCTCAATAGTAGGATTTTTTTTTTCTGCGGAGTCACCTAGTGCAG | binding signal: 9520 fluorescence intensity (a.u.)

# (listing goes on)

row,Sequence,binding signal
1,AAATCCACCTCTCTGAATACGCCCGCCATCTTCCATCTCCCGGAGTCACCTAGTGCAG,13700 fluorescence intensity (a.u.)
2,GGGGTGGGGTTGGCGGCGACGCGGGCGAGGCCGAGGAGGACGGAGTCACCTAGTGCAG,13400 fluorescence intensity (a.u.)
3,CTGCTGTCTTCCTCAATCCTGGGTTCAGATGTTTCACCTCCGGAGTCACCTAGTGCAG,11200 fluorescence intensity (a.u.)
4,GTTGCAGGGATTATGGTTGACTAGAAACATGTTTGAGTGGCGGAGTCACCTAGTGCAG,9640 fluorescence intensity (a.u.)
5,TTTTTCTCTCTTGGTCCACGTGCTGATGTTTTTTCTCCATCGGAGTCACCTAGTGCAG,14400 fluorescence intensity (a.u.)
6,ACGTCGTGCTGTTTTTTCTCTGAATTTTGTTCAAATTTATCGGAGTCACCTAGTGCAG,15700 fluorescence intensity (a.u.)
7,CCGCGGTTCATCATTCTTTGGCCTCTCCGAAACCTAGATCCGGAGTCACCTAGTGCAG,8860 fluorescence intensity (a.u.)
8,CTGCATCTAATTACGTGATAATCACTTTTTCCCTCGTTTTCGGAGTCACCTAGTGCAG,10200 fluorescence intensity (a.u.)
9,TATAGTCGTCTGGTTTGTCTTTGTTAAAATTGTACAATTTCGGAGTCACCTAGTGCAG,8170 fluorescence intensity (a.u.)
10,AGTTTCTACAGTTGTAATGTATCAGTAGTCTCGACTTTCTCGGAGTCACCTAGTGCAG,13000 fluorescence intensity (a.u.)
11,CGCATCATTCACCGCATTTGCCAGTATCTCACCTGGCAATCGGAGTCACCTAGTGCAG,8660 fluorescence intensity (a.u.)
12,CTCTTGCCCGTCCATTGCCCACCACCACCACCCTGCTCTCCGGAGTCACCTAGTGCAG,9860 fluorescence intensity (a.u.)
13,CACCAACCGATTTCGCAGCGCCAGCCCACTGATTCCTCACCGGAGTCACCTAGTGCAG,8090 fluorescence intensity (a.u.)
14,GCCTAACCCTAACCCTAGCCGCCACCGCTCAACCGCCTCCCGGAGTCACCTAGTGCAG,8590 fluorescence intensity (a.u.)
15,CCACTTCAGCTGGTTAACCTTGGCCTTCCTCGACATCTTCCGGAGTCACCTAGTGCAG,10500 fluorescence intensity (a.u.)
16,AACCAAACGCTAGAAATCGCTCGTCACACATCAGTCCCGGCGGAGTCACCTAGTGCAG,8150 fluorescence intensity (a.u.)
17,CCGGAATACCTGGCCAATTTTACTGTCCTTTCCAGCTTGACGGAGTCACCTAGTGCAG,8380 fluorescence intensity (a.u.)
18,TTAAAATAGCATTTACCCGTTCCAATGCATAGACTTTTTTCGGAGTCACCTAGTGCAG,8540 fluorescence intensity (a.u.)
19,CGTGTCGAGCTCTGTCTCCTCGTCTTCATCCGCCGCTTCACGGAGTCACCTAGTGCAG,18100 fluorescence intensity (a.u.)
20,GGGATGTAAAGTTTTGGCGTGTCATATCGGGTATTATATACGGAGTCACCTAGTGCAG,9690 fluorescence intensity (a.u.)
21,AACGGTTCTTCTGGTCATTTCCAATTCGCCATCCGTCTGTCGGAGTCACCTAGTGCAG,8930 fluorescence intensity (a.u.)

row,Sequence,binding signal
1,TACTGTAATACCGTATGTATTTTTTTCTCATATATCTAGCCGGAGTCACCTAGTGCAG,8310 fluorescence intensity (a.u.)
2,CCTTTGTCTCGTCCTTTCTCACACACTTGCTGGTTATTAACGGAGTCACCTAGTGCAG,9540 fluorescence intensity (a.u.)
3,TGATTAGGTTGATGAGATAGGGGTGGTAAAGCATGTTTTTCGGAGTCACCTAGTGCAG,8070 fluorescence intensity (a.u.)
4,ATAATGTGATTGCCGGTGTTGTATCTATATCCGGAGGCTCCGGAGTCACCTAGTGCAG,9250 fluorescence intensity (a.u.)
5,GCGGGCGGACGGGCGAGGCGCGGGCGGGCTGGGAAGCGGCCGGAGTCACCTAGTGCAG,9250 fluorescence intensity (a.u.)
6,ACACCGTCTTCCTCGGCTTCGTCTACAACCACGCGCCGCCCGGAGTCACCTAGTGCAG,10700 fluorescence intensity (a.u.)
7,CAACGACTGCCGCAATCGCGTCACCATCATCGTCCTGCGCCGGAGTCACCTAGTGCAG,9100 fluorescence intensity (a.u.)
8,CTCTCACCACTATGTACACTTGATCGTCATTTGCCACAAGCGGAGTCACCTAGTGCAG,11300 fluorescence intensity (a.u.)
9,CTATATATGTGACGCTGACGTTCCTCATCTCCCAAGCTGCCGGAGTCACCTAGTGCAG,8480 fluorescence intensity (a.u.)
10,TCCAAGGTGAGATCTTTGCCTCTTGCATTTCTATTTTTCCCGGAGTCACCTAGTGCAG,8500 fluorescence intensity (a.u.)
11,TTTTTCTCGTCACACCTTTGTAAATCGTAAGTACTTGTCCCGGAGTCACCTAGTGCAG,9280 fluorescence intensity (a.u.)
12,CTCTGTGCCCAGTTGATCTCTTCTTCATTTGGTTTTCATACGGAGTCACCTAGTGCAG,10500 fluorescence intensity (a.u.)
13,CAGTTACATCCTATCCGCTGTCCATTATCATCCGGCGGTTCGGAGTCACCTAGTGCAG,8540 fluorescence intensity (a.u.)
14,TCTCCTCGCTCGTCGTCGTTGCCGGCAAACGCGCACTCAACGGAGTCACCTAGTGCAG,8890 fluorescence intensity (a.u.)
15,TTTTTCTCATCTCTTTCGTGTCATTTTAAATTTTACTTTTCGGAGTCACCTAGTGCAG,13900 fluorescence intensity (a.u.)
16,AACTGTGTGGTTGTCAAATGGCAATGCTGTTTTTTTTCTCCGGAGTCACCTAGTGCAG,8470 fluorescence intensity (a.u.)
17,GTTCTTGCTTCCTGTGGTAGCTTGTTTGTTGTTCTACTTACGGAGTCACCTAGTGCAG,12700 fluorescence intensity (a.u.)
18,GCACGTGTCTTCCCCTGTTGCGCGTCTCCCTCTCACGCCTCGGAGTCACCTAGTGCAG,9510 fluorescence intensity (a.u.)
19,GGAGCTGACGCCGCCGCCACCACCACCACCACGACGCCAACGGAGTCACCTAGTGCAG,11100 fluorescence intensity (a.u.)
20,TGCTGTAATTTTGTTCTTGAGCTGTAGCCTGTCTCTCCTGCGGAGTCACCTAGTGCAG,10800 fluorescence intensity (a.u.)
21,ATTCACCGCACAACACCACACTCGCGGACTCGCCCATATGCGGAGTCACCTAGTGCAG,9590 fluorescence intensity (a.u.)
